Assay results taken from PubChem BioAssay AID1794844 (National Center for Advancing Translational Sciences (NCATS), 2023).
Hit rate of the full screen: of about 2,800 compounds, fewer than 10 were called active. Roughly 7% stayed inconclusive and do not appear here. The call rests on the fitted dose curve; in most records, active means well fitted inhibition curve with a large enough effect; inconclusive means small, poorly fitted or top-dose-only effect; inactive means no such curve, though single readings can be large or run the other way. Some of the results follow.

Sequences of proteins named here, by UniProt entry; tags and fusion partners are left off. A change or cut given only in a name is not applied to a line headed by its entry.
UniProt C7C422: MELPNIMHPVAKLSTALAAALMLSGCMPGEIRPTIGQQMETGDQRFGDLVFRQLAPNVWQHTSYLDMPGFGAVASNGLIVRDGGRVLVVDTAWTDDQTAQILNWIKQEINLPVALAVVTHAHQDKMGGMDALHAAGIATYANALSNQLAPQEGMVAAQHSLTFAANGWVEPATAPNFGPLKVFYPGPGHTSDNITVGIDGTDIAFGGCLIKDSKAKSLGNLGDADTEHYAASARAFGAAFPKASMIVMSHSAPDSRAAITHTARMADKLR

target: Metallo-beta-lactamase type 2 (Klebsiella pneumoniae) (UniProt C7C422); test: qHTS to identify inhibitors of the New Delhi Metallo-beta-lactamase (NDM): Nitrocefin screen against the machine-based learning selections.; further: % of control where 0% means no effect; details: NDM-1 enzyme, nitrocefin hydrolysis, absorbance 485 nm; activity, negative = inhibition: at the top concentration
Excerpt: Assay Submitter (PI): James Inglese Ph.D., Patricia Dranchak Ph.D., Mahesh Aitha Ph.D. Assay Development and Screening Technology Laboratory (ADST) National Center for Advancing Translational Sciences (NCATS), Rockville, MD National Institute of Health (NIH), Bethesda, Maryland The metallo-beta-lactamases (MBL) are a main antibiotic resistance mechanism evolved by bacteria. There is an urgent clinical need for MBL inhibitors to mitigate this growing threat. To support a machine-based learning study, qHTS has been used to experimentally test inhibitors identified by prediction tools.
PROTOCOL TABLE (as described by Inglese et al., 2007) SEQUENCE No. (e.g., 1, 2, 3, etc.); […] (e.g., enzyme, Incubation, Reagent, etc.); VALUE; DESCRIPTION Primary Screen 1; NDM-1; 4 uL of 3 nM enzyme [2 nM final] in 50 mM HEPES (pH 7.0), 1 uM […], 0.01% Tween20; Use BioRaptr to dispense into two sets of Aurora black, clear bottom high base 1536-well plates 2; Compounds; 23 nL; Use Pin Tool (Wako) to transfer DMSO control and library compounds in DMSO 3; Incubate; >30 min 4a; Reagent; 2 uL of 50 uM nitrocefin [16.7 uM final] to one set of assay plates 4b; Reagent; 2 uL of 150 uM meropenem [50 uM final] to second set of assay plates 5a; Incubate; 15 min 5b; Incubate; 30 min 6a; Detector; Absorbance at 485 nm (bandwidth = 5 nm, 25 flashes/well) on Tecan Infinity 6b; Detector; Absorbance at 300 nm (bandwidth = 5 nm, 25 flashes/well) on Tecan Infinity NOTES (numbers refer to sequence above) 1; Column 1 of each plate received assay buffer without enzyme and columns 2-48 received enzyme for a final assay concentration of 2 nM. 2; Control plate contained DMSO in columns 1, 2, 3, and 4. 3; Compound interaction with enzyme. 4; Nitrocefin and meropenem substrates were prepared in the same assay buffer as step 1 for a final assay concentration of 16.7 uM and 50 uM, respectively, and added to all wells across respective sets of assay plates. 5; Default reader settings were applied for absorbance read at 485 nm (nitrocefin) or 300 nm (meropenem), bandwidth = 5 nm, 25 flashes/well. References: Inglese J, Shamu CE, Guy RK. 2007. Reporting data from high-throughput screening of small-molecule libraries. Nat Chem Biol. doi:10.1038/nchembio0807-438 Yasgar A, Shinn P, Jadhav A, Auld D, Michael S, Zheng W, Austin CP, Inglese J, Simeonov A. 2008. Compound Management for Quantitative High-Throughput Screening. J Lab Autom 13:79 - 89. doi:10.1016/j.jala.2007.12.004

activity, negative = inhibition, inactive:
COc1ccc([C@H]2C[C@@H](O)[C@@H](O)[C@@H]2NC(=O)C2CCC2)cc1 2.58% [at 57.5 µM]
Cc1ccc(CN2C(=O)[C@@H]3C[C@@H](O)CN3C3(CN(C4Cc5ccccc5C4)C3)C2=O)o1 -4.44% [at 57.5 µM]
CC(=O)N1C[C@@H]2CCCN3CCC[C@@H]([C@H]23)[C@H]1CCCC(=O)N(C)Cc1ccc(N2CCOCC2)cc1 0.217%
O=C(O)Cn1ccc2cc(OCc3cccc(-c4ccc(F)cc4F)c3)cnc21 -2.25% [at 57.5 µM]
Cc1noc(C)c1C(=O)N[C@H]1[C@H](O)[C@H](O)C[C@@H]1c1cccnc1 1.22% [at 57.5 µM]
COCCC1(NS(C)(=O)=O)CCN(C(=O)c2cccc(C#N)c2)CC1 0.573%
O=C(c1ccoc1)N1CCCC(CCc2ccc(F)c(F)c2)C1 (configuration not stated) -0.0995%
Cn1cc(CN2CCOC[C@H]2c2nc(C(C)(C)C)co2)c2ccccc21 -0.956% [at 57.5 µM]
O=C(N[C@H](c1ccccn1)C1CC(O)C1)c1ccc2c(c1)ncn2CCO (some centres not stated) 5.03%
CCN1c2cc(C(=O)Nc3ccc(C)c(C)c3)ccc2C(=O)N2CCCCC21 (configuration not stated) 0.646%
CO[C@@H]1CO[C@H]2[C@@H]1OC[C@@H]2NC(=O)Nc1cccc(C(F)(F)F)c1 10.1% [at 57.5 µM]
Cc1nn(-c2ccccc2)nc1C(=O)N[C@H](C)c1onc(-c2cccnc2)c1C(=O)O -11.3%
Cc1cc(C)n2ncc(CN3CCCC3c3nc(-c4ccncc4)no3)c2n1 (configuration not stated) -3.22%
O=C(O)C[C@@H]1CCN(C(=O)C2CCCC2)C[C@@H]1CCN1CCN(c2ccccn2)CC1 -8.42% [at 57.5 µM]
O=C1NC[C@@H](CCC(=O)N2CCCC2)N2C[C@@H](NCc3cccc(Cl)c3)C[C@@H]12 0.771% [at 57.5 µM]
CCCN(C)c1nccnc1OC1CCN(C(=O)c2ccc(OC)nc2OC)C1 (configuration not stated) -7.38%
CC(=O)N1CCN(C(=O)C[C@@H]2CCNC[C@@H]2Cc2cc(-c3ccccc3)on2)CC1 5.04% [at 57.5 µM]
O=C(NCc1ccccc1F)C1CCN(C(=O)c2ncn3c2COC(c2ccccc2)C3)CC1 (configuration not stated) 0.463%
Cc1cc(CNC(=O)[C@@H]2CCC[C@@H](NCc3nccs3)CN(C)C(=O)C2)no1 1.41% [at 57.5 µM]
O=C(O)C[C@@H]1CCN(C(=O)C2CCCCC2)C[C@@H]1CCN1CCOCC1 -23.9% [at 57.5 µM]
O=C(CC[C@@H]1CNC(=O)[C@@H]2C[C@H](NC(=O)Nc3ccsc3)CN12)NCc1cccs1 -10.4%
CCCn1cc(S(=O)(=O)N2C[C@H](C3CC3)[C@@H](N)C2)cn1 -1.58%
O=C(O)c1ccc(CC2CCN(Cc3ccncc3)C2)cc1 (configuration not stated) -1.88%
COc1ccc(C(=O)N[C@@H]2CCC[C@@H]2C(=O)N2CCN(C(=O)c3ccco3)CC2)cn1 -4.54%
OCC1CN(Cc2cccnc2)CCC12CCN(Cc1cccc(O)c1)CC2 (configuration not stated) 10.4%
Cc1cc(C(=O)NCCc2csc(-c3cccnc3)n2)cc(S(N)(=O)=O)c1C 340%
CCOc1ccc(NC(=O)Cn2c(N3CCc4ccccc4C3)nc(C)cc2=O)cc1 0.401%
O=C(NCc1nc(-c2cnccn2)n[nH]1)[C@H]1CNC[C@H](C(=O)N2CCOCC2)C1 -7.62%
COc1ccccc1CNC(=O)c1c(OCC(C)C)cc(=O)n2c1CCCCC2 3.75%
Cc1ccc(C2Cn3nnc(-c4noc(-c5ccncc5)n4)c3CO2)cc1 (configuration not stated) -1.26%
O=C(Cc1ccccc1O)NCc1cccnc1Oc1ccc(F)cc1F 3.43%
CN1CCN(S(=O)(=O)c2cccc(C(=O)N3C[C@@H]4CCN[C@@H]4C3)c2)CC1 -7.19%
COc1ccc(CN2CCNc3cc(-c4ccccc4)ncc3C2)cc1O -12.7% [at 57.5 µM]
COc1ccc(CCC(=O)N2CCC(N3CC4CC(C3)[C@H]3CCCC(=O)N3C4)CC2)cc1 (some centres not stated) 1.84%
CC1=C[C@@H](CNCc2ccncc2)[C@H](C(C)C)C[C@H]1Cc1nnc(-c2ccc([N+](=O)[O-])cc2)o1 -2.19%
Cc1cccc(-c2noc([C@@H]3Cc4nc[nH]c4CN3C(=O)COCC(=O)O)n2)c1 6.01% [at 57.5 µM]
CC(=O)N1CCC(N[C@H]2C[C@@H](Cc3cc(CN(C)C)on3)C2(C)C)CC1 -7.61% [at 57.5 µM]
COc1ccccc1CN1CCC2(CC1)CC(C(=O)O)N(C(C)=O)C2 (configuration not stated) -1.38%
Cc1ccc2c(c1)N1C(=O)OC[C@@H]1CCN(C(=O)NC1CCCCC1)C2 -2.65% [at 57.5 µM]
CC(Cn1cncn1)NC(=O)c1ccc(S(=O)(=O)NCCO)cc1 (configuration not stated) -2.99%
CC(=O)N1CCC(N[C@H]2CC(C)(C)[C@@H]3C[C@@](C)(O)CC[C@]23CCC(=O)NCCN2CCOCC2)CC1 2.2%
CC(C)N1C[C@H](O)C[C@H]1c1nc(-c2ccc(C(F)(F)F)cc2)no1 -6.71% [at 57.5 µM]
COCC(=O)Nc1ccc([C@H]2OCC(=O)N(CC(C)C)[C@@H]2CO)cc1 1.61% [at 57.5 µM]
CC1=C[C@@H](CNCc2ccncc2)[C@H](C(C)C)C[C@H]1Cc1nnc(-c2ccc(C)cc2)o1 6.34% [at 57.5 µM]
COc1ccc(NC(=O)N[C@H]2CO[C@H]3[C@@H]2OC[C@@H]3n2cc(CN(C)Cc3ccccc3)nn2)cc1 0.93%
CNc1ccc(-c2noc([C@@H]3CCCN3Cc3cccnc3)n2)cn1 1.06% [at 57.5 µM]
CS(=O)(=O)NC[C@H]1O[C@@H](CC(=O)N2CCN(c3ccccn3)CC2)[C@H](O)[C@@H]1O -1.35% [at 57.5 µM]

As a short view, part of the list above.
activity, negative = inhibition, inactive:
CC(=O)N1C[C@@H]2CCCN3CCC[C@@H]([C@H]23)[C@H]1CCCC(=O)N(C)Cc1ccc(N2CCOCC2)cc1 0.217%
O=C(O)Cn1ccc2cc(OCc3cccc(-c4ccc(F)cc4F)c3)cnc21 -2.25% [at 57.5 µM]
Cc1noc(C)c1C(=O)N[C@H]1[C@H](O)[C@H](O)C[C@@H]1c1cccnc1 1.22% [at 57.5 µM]
